According to the supplement of paper PMC6411743:
± gives the standard deviation of the averaged measurements. This is one part of the list.

Amino acid sequences for entries named in this document (tags omitted). A change or cut given only in a name is not applied to a line headed by its entry.
UniProt O43681: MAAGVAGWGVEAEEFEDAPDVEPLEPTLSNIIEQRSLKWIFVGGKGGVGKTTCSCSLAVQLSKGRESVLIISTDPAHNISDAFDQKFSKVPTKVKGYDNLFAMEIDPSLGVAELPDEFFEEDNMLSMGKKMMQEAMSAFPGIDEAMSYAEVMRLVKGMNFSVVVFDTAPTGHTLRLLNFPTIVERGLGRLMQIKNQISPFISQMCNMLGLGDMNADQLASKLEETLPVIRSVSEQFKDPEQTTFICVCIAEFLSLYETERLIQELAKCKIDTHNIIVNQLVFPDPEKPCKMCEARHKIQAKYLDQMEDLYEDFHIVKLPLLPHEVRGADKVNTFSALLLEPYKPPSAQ
UniProt P49459, whole entry: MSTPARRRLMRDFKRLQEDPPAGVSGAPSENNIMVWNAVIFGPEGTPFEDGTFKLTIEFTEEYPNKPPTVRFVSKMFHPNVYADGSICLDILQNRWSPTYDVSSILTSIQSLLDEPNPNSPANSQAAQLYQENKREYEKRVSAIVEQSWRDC
UniProt P53365: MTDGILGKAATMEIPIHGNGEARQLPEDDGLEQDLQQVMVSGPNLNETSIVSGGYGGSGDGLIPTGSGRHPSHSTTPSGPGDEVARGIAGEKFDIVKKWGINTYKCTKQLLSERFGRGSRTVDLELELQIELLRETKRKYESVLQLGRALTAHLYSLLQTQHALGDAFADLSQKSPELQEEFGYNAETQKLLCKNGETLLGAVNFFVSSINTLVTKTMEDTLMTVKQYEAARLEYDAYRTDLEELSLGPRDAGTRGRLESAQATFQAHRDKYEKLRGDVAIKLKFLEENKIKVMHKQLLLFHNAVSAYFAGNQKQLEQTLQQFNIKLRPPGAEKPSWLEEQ
UniProt Q6PIU2: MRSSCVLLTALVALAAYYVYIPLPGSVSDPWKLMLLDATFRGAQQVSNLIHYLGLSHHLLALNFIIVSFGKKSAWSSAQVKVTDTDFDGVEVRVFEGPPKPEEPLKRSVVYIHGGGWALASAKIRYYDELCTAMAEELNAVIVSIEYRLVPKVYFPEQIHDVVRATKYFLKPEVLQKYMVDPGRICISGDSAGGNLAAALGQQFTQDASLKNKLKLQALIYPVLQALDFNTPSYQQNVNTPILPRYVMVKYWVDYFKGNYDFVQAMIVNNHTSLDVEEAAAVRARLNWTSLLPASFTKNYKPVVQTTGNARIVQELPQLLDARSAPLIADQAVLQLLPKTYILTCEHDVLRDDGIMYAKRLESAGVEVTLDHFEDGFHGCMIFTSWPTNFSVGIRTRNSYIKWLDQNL
UniProt Q14839: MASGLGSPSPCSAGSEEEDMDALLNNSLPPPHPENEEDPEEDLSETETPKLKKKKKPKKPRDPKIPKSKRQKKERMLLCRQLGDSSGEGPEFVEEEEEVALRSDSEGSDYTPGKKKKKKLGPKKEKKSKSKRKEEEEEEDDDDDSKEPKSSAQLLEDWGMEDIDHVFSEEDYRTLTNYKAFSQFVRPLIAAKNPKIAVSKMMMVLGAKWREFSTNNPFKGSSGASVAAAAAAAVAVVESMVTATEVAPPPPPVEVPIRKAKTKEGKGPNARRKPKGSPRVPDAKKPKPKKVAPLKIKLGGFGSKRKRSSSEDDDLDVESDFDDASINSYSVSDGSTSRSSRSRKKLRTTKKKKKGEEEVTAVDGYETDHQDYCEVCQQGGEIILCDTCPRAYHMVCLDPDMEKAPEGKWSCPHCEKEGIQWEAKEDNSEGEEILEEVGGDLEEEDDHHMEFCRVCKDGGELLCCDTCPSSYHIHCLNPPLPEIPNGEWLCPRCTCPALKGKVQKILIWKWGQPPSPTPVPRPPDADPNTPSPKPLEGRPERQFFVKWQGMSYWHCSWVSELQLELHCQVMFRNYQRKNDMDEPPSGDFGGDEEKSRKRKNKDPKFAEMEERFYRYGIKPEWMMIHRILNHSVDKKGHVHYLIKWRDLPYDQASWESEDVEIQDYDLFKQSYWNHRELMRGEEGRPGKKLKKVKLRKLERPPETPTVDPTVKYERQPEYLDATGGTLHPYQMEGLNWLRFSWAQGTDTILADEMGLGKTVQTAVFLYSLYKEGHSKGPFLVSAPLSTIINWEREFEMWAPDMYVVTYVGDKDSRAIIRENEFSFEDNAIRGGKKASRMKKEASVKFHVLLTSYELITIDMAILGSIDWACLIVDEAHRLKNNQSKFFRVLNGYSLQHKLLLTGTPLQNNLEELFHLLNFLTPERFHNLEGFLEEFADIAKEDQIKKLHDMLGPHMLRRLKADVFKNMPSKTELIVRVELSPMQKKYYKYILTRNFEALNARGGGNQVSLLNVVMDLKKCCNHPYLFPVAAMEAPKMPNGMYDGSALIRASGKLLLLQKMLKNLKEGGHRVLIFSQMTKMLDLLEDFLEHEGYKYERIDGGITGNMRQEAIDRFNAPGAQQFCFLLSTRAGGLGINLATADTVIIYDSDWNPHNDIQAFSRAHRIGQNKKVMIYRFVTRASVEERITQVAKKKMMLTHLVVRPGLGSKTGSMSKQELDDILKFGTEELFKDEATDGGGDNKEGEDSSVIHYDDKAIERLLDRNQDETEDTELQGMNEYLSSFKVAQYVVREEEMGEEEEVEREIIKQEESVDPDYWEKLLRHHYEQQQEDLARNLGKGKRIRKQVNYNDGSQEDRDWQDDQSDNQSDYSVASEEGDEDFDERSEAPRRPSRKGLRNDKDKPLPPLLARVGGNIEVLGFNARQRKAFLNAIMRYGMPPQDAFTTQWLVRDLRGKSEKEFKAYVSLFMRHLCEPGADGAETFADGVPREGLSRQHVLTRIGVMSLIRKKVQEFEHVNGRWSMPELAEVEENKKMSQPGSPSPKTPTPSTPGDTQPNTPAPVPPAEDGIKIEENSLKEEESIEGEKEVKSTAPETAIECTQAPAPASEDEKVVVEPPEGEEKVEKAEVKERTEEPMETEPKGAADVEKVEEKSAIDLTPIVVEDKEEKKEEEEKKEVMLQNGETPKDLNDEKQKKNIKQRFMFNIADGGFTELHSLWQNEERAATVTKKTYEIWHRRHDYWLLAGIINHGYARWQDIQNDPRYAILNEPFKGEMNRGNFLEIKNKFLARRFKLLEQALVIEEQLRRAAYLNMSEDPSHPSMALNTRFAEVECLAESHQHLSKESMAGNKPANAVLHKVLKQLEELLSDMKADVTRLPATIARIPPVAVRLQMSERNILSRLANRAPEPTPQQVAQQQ
UniProt Q9BWM7: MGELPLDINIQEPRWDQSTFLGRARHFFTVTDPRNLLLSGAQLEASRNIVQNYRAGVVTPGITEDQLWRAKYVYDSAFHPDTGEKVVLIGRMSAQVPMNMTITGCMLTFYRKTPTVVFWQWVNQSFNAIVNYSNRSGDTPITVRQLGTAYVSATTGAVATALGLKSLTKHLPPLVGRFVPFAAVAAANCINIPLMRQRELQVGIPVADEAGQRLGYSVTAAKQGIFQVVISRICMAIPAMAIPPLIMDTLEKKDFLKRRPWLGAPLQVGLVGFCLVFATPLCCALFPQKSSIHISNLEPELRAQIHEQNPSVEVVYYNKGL
UniProt Q9NP80: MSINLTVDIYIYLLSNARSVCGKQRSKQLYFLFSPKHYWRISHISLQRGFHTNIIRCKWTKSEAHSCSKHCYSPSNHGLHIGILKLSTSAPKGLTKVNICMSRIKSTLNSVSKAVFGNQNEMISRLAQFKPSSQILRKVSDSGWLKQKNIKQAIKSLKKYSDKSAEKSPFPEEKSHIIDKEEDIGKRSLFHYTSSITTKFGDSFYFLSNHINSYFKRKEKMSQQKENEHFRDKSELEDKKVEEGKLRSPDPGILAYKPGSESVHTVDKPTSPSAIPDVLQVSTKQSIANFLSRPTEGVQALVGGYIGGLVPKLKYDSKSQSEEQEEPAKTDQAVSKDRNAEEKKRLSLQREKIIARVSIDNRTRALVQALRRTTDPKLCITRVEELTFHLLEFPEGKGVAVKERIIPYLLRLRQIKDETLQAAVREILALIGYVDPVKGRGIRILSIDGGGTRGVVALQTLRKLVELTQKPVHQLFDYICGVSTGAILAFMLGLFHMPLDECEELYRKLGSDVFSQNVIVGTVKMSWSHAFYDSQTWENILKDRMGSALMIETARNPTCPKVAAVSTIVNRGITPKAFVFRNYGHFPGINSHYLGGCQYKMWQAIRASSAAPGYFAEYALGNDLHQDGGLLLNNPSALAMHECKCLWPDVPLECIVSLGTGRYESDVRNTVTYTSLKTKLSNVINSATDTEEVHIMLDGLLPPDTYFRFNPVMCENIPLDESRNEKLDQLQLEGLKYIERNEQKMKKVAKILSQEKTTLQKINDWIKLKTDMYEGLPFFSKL
UniProt O60610, whole entry: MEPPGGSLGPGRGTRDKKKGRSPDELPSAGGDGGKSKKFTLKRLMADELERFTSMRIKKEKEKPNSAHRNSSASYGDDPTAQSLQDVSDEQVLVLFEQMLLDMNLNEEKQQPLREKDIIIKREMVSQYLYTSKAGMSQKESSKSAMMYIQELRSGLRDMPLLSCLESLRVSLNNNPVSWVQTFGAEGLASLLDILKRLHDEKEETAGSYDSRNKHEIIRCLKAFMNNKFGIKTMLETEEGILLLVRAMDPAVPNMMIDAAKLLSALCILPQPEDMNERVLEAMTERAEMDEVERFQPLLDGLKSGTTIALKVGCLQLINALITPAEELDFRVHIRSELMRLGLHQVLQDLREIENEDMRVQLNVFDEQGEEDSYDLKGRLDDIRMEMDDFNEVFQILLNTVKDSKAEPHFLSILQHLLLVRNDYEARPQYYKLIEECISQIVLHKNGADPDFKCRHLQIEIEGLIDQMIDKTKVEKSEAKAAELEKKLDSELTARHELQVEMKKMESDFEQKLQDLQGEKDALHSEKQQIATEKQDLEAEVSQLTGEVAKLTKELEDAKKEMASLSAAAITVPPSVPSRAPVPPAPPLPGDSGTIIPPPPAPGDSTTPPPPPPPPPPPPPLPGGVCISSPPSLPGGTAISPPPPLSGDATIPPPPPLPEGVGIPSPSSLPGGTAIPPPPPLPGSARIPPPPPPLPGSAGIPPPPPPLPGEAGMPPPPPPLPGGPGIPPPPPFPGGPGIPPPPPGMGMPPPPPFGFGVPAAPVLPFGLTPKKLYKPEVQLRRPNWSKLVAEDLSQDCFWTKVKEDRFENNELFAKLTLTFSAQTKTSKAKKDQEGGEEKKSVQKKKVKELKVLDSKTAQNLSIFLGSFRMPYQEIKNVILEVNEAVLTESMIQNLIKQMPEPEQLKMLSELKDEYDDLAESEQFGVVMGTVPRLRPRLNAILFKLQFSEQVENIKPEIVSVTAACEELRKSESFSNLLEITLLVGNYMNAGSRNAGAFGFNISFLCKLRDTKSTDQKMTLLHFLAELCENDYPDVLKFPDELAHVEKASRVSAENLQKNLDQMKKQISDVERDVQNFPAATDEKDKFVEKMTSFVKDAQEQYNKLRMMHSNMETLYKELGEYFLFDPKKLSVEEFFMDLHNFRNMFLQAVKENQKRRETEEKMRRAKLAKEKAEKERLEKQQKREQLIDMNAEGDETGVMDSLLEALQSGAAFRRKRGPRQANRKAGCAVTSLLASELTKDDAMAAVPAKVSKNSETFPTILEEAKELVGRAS
UniProt O94967: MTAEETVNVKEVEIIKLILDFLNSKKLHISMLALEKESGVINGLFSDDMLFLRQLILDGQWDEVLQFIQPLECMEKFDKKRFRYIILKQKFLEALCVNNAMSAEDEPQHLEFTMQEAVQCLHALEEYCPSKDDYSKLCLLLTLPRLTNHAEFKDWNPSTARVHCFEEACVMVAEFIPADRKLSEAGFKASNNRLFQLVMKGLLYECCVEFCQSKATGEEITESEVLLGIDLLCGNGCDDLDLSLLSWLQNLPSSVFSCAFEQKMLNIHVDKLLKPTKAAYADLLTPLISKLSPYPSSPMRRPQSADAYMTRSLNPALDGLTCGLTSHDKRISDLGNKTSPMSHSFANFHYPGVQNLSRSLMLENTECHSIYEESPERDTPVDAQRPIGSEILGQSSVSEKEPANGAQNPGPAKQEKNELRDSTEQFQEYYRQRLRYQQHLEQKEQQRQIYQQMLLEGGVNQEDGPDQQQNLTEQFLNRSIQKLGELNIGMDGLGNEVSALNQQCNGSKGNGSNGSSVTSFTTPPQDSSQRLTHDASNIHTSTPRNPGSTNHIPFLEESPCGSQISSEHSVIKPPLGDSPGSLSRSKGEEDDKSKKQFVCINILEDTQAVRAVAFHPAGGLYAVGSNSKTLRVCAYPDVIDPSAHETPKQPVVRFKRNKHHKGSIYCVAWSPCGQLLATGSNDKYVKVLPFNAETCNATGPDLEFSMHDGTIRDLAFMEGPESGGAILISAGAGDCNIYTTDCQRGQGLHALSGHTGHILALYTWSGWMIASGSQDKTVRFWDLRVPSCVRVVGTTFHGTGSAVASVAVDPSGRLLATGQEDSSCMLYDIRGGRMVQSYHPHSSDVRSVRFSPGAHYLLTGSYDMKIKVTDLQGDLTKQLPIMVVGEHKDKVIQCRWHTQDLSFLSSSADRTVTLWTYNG

Compound: Nc1nc2c(ncn2[C@@H]2O[C@H](COP(=O)(O)OP(=O)(O)OP(=O)(O)O)[C@@H](O)[C@H]2O)c(=O)[nH]1 [guanosine triphosphate]
Assay: NP40-soluble protein abundance relative to vehicle (solubility fold change) (ratio); higher = more soluble protein in presence of GTP
Summary of the method: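 Each value is a fold change relative to the detergent-processed vehicle, calculated per replicate from vsn-normalised intensities. Jurkat crude lysate received eight concentrations (0.1 to 10 mM) for 10 min at room temperature and 3 min at 37 °C, then was solubilised in 0.8% NP40 with benzonase (60 min, 4 °C). The ultracentrifuged supernatant was TMT-labelled and run by LC-MS/MS in three independent experiments.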

Target	NP40-soluble protein abundance (concentration: 0.1mM)	NP40-soluble protein abundance (concentration: 0.5mM)	NP40-soluble protein abundance (concentration: 1mM)	NP40-soluble protein abundance (concentration: 2mM)	NP40-soluble protein abundance (concentration: 4mM)	NP40-soluble protein abundance (concentration: 6mM)	NP40-soluble protein abundance (concentration: 8mM)	NP40-soluble protein abundance (concentration: 10mM)
A0A0D9SF53|A0A0D9SFB3|A0A0D9SG12|O00571 and related entries (UniProt O00571)	0.997 ± 0.016	1.03 ± 0.0085	1.012 ± 0.0048	1.05 ± 0.018	1.1 ± 0.055	1.17 ± 0.057	1.2 ± 0.051	1.23 ± 0.038
A0A0C4DFR8|Q9UBK9 and related entries (UniProt Q9UBK9)	0.999 ± 0.083	1.04 ± 0.082	1 ± 0.035	1.05 ± 0.14	1.04 ± 0.17	1.03 ± 0.11	0.992 ± 0.07	1.07 ± 0.13
A0A087WXS7|K7ERW9 and related entries (UniProt O43681)	0.966 ± 0.054	0.932 ± 0.021	0.865 ± 0.01	0.893 ± 0.044	0.903 ± 0.037	0.864 ± 0.034	0.821 ± 0.057	0.833 ± 0.065
A0A0C4DFU2|P04179 and related entries (UniProt P04179)	0.85 ± 0.056	0.843 ± 0.071	0.851 ± 0.071	0.839 ± 0.043	0.814 ± 0.045	0.823 ± 0.052	0.734 ± 0.073	0.776 ± 0.07
A0A0D9SG71|P49459 (UniProt P49459)	0.998 ± 0.058	1 ± 0.08	1.02 ± 0.067	1.01 ± 0.054	0.985 ± 0.062	0.936 ± 0.045	1 ± 0.07	0.956 ± 0.041
A0A0A0MQU0|K7EIR0 and related entries (UniProt Q9BV38)	0.994 ± 0.053	0.977 ± 0.059	1 ± 0.027	0.965 ± 0.05	0.994 ± 0.033	1.023 ± 0.0084	0.953 ± 0.047	0.965 ± 0.078
A0A0A0MRJ6|C9J0F2 and related entries (UniProt P22061)	0.912 ± 0.074	0.923 ± 0.037	0.938 ± 0.046	0.91 ± 0.06	0.909 ± 0.054	0.928 ± 0.062	0.892 ± 0.069	0.925 ± 0.035
A0A0A0MSV9|A0A0G2JH37|A0A0G2JKZ1|A2AB90 and related entries (UniProt O15533)	0.986 ± 0.092	0.965 ± 0.072	0.959 ± 0.073	0.908 ± 0.085	0.921 ± 0.042	0.91 ± 0.054	0.903 ± 0.065	0.874 ± 0.079
A0A087X1E4|P53365 and related entries (UniProt P53365)	0.956 ± 0.05	0.853 ± 0.057	0.972 ± 0.052	0.963 ± 0.08	0.913 ± 0.088	0.906 ± 0.1	0.861 ± 0.14	0.889 ± 0.068
A0A087X188|Q9UBW5 (UniProt Q9UBW5)	0.885 ± 0.11	0.932 ± 0.13	0.887 ± 0.12	0.899 ± 0.15	0.86 ± 0.12	0.88 ± 0.12	0.853 ± 0.094	0.934 ± 0.13
A0A087WYG2|E9PFH7 and related entries (UniProt Q9UPT6)	0.973 ± 0.05	0.964 ± 0.078	1.06 ± 0.036	0.979 ± 0.069	1.01 ± 0.23	0.992 ± 0.054	1.04 ± 0.046	0.966 ± 0.096
A0A0A0MTJ9|A0A0R4J2G3|Q6PIU2 and related entries (UniProt Q6PIU2)	0.928 ± 0.1	0.975 ± 0.095	0.919 ± 0.096	0.922 ± 0.09	0.917 ± 0.13	0.882 ± 0.12	0.889 ± 0.11	0.921 ± 0.086
SH3PXD2B (UniProt A1X283)	1.02 ± 0.062	1.01 ± 0.052	1.05 ± 0.036	1 ± 0.07	0.941 ± 0.079	1.01 ± 0.064	0.99 ± 0.058	1.01 ± 0.1
A0A087WZ62|Q9H6U8 and related entries (UniProt Q9H6U8)	1.026 ± 0.0093	0.971 ± 0.021	1.03 ± 0.21	0.93 ± 0.029	0.978 ± 0.16	0.955 ± 0.11	0.92 ± 0.095	0.95 ± 0.093
A0A0A0MSJ9|Q15283 and related entries (UniProt Q15283)	1.05 ± 0.057	1.07 ± 0.065	0.985 ± 0.018	0.998 ± 0.04	1.01 ± 0.054	0.967 ± 0.048	0.94 ± 0.067	0.927 ± 0.13
A0A0C4DGG9|F5GWX5 and related entries (UniProt Q14839)	1.01 ± 0.034	1.06 ± 0.06	1.08 ± 0.074	1.12 ± 0.1	1.14 ± 0.11	1.13 ± 0.11	1.18 ± 0.15	1.15 ± 0.14
A0A0A0MS41|Q9BWM7 (UniProt Q9BWM7)	1.01 ± 0.098	0.976 ± 0.095	0.958 ± 0.058	0.941 ± 0.048	0.97 ± 0.059	0.943 ± 0.052	0.931 ± 0.08	0.899 ± 0.03
A0A0C4DG51|Q9NP80 and related entries (UniProt Q9NP80)	1.08 ± 0.074	1.03 ± 0.12	0.871 ± 0.034	0.897 ± 0.065	0.915 ± 0.094	0.867 ± 0.079	0.833 ± 0.055	0.898 ± 0.15
A0A0G2JH68 (UniProt O60610)	0.964 ± 0.043	0.974 ± 0.04	0.997 ± 0.05	0.955 ± 0.067	0.951 ± 0.064	0.969 ± 0.059	0.977 ± 0.029	0.963 ± 0.04
A0A0B4J2B4|K7EJ78 and related entries (UniProt P62841)	1.05 ± 0.079	1.03 ± 0.11	1.11 ± 0.23	1.05 ± 0.25	0.969 ± 0.27	0.89 ± 0.3	0.861 ± 0.3	0.844 ± 0.3
A0A0D9SEU5|Q6VN20 and related entries (UniProt Q6VN20)	1.09 ± 0.062	1.11 ± 0.077	1.15 ± 0.039	1.13 ± 0.063	1.18 ± 0.095	1.15 ± 0.063	1.13 ± 0.11	1.18 ± 0.12
A0A0A0MRE6|O94967 and related entries (UniProt O94967)	1.05 ± 0.084	1.08 ± 0.083	1.002 ± 0.0072	1.05 ± 0.061	0.924 ± 0.018	0.983 ± 0.076	0.94 ± 0.036	1.01 ± 0.039
A0A087WYL7|G3V4A5 and related entries (UniProt O75586)	0.988 ± 0.034	1.07 ± 0.055	1.13 ± 0.085	1.13 ± 0.11	1.19 ± 0.2	1.2 ± 0.13	1.24 ± 0.21	1.27 ± 0.25
A0A0B4J220 (UniProt E9PRG8)	1.02 ± 0.041	0.975 ± 0.021	1.05 ± 0.045	1.16 ± 0.013	1.36 ± 0.019	1.35 ± 0.021	1.15 ± 0.092	1.63 ± 0.13

As entered above.
In NP40-soluble protein abundance (concentration: 8mM), A0A0A0MRE6|O94967 and related entries (UniProt O94967) is listed with 0.94 ± 0.036
In NP40-soluble protein abundance (concentration: 8mM), A0A087X1E4|P53365 and related entries (UniProt P53365) is listed with 0.861 ± 0.14
